Test results from patent US20160280736A1, “CYCLIC PEPTIDE COMPOUND, AND PREPARATION METHOD, PHARMACEUTICAL COMPOSITION AND USE THEREOF” (HANGZHOU GUANYU BIO-MEDICAL CO., LTD., priority 2013, published 2016).

Amino acid sequences for entries named in this document (tags omitted).
UniProt Q8WUI4, whole entry: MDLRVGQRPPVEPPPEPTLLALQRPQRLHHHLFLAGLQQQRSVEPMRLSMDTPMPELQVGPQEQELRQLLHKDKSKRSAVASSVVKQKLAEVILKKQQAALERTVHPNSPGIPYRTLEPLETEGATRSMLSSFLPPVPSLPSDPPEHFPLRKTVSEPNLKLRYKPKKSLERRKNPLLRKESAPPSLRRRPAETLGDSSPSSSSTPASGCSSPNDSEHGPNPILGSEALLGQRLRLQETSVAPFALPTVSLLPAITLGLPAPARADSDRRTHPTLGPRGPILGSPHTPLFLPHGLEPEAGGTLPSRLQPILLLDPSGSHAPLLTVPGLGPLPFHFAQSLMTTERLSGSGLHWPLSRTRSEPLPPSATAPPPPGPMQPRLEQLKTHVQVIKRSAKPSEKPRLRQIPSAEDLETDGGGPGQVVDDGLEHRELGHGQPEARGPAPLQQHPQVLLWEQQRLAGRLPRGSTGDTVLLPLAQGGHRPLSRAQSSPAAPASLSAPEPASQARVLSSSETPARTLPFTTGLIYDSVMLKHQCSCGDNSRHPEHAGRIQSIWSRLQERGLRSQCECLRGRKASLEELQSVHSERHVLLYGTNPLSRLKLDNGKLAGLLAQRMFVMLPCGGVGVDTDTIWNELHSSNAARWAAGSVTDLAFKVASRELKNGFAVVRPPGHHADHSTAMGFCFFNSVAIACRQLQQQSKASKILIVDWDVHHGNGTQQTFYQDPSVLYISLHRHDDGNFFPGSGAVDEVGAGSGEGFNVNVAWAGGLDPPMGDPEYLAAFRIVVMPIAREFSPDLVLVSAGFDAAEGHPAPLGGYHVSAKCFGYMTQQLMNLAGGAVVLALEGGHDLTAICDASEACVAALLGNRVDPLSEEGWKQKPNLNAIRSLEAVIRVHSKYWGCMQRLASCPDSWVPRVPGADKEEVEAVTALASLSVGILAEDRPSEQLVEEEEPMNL

Molecular target: HDAC7 (Homo sapiens, UniProt Q8WUI4)
Test: HDAC biochemical activity measurement (fluorescent substrate deacetylation)
Conditions: HDAC7 enzyme, 37°, 30 minutes

SMILES	IC50 (μM) HDAC7
C/C=C1\NC(=O)c2cc(C)cc(n2)CNC(=O)C[C@@H](/C=C/CCSC(C)=O)OC(=O)[C@H](Cc2ccccc2)NC1=O	no activity
C/C=C1\NC(=O)c2ccc(F)c(n2)CNC(=O)C[C@@H](/C=C/CCSC(=O)CCCCCCC)OC(=O)[C@H](C)NC1=O	no activity
C/C=C1\NC(=O)c2nc(ccc2F)CNC(=O)C[C@@H](/C=C/CCSC(C)=O)OC(=O)[C@H](C)NC1=O	no activity

Structures were worked out from names or drawings and are uncertain.
